Assay results published in PMC4323032.
Results are given in words; binding and its absence hold for the method and conditions named. Binding seen in cells or lysates may run through a third protein. These calls come from enrichment with a bait or labelling near it, and not all partners need be listed. Tags and fused reporters may be left off the sequences shown.

T1: Peroxiredoxin V (mouse (endogenous in kidney)) (UniProt P99029)
T1 sequence: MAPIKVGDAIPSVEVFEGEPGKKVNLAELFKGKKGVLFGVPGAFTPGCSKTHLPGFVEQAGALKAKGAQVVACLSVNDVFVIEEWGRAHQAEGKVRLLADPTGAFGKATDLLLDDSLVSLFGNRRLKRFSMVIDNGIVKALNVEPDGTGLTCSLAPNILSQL

B1: Ras related protein Rab 43 isoform b (protein, UniProt Q8CG50 1-210)
chain: MAGPGPGDQDEHYDFLFKLVLVGDASVGKTCVVQRFKTGAFSARQGSTIGVDFTMKTLEIQGKRVKLQIWDTAGQERFRTITQSYYRSANGAILAYDISKRSTFLSVPHWIEDVRKYAGSNIVQLLIGNKSDLADFREVPLAEAQSLAEHYDILCAIETSAKDSSNVEEAFTRVATELIMRHGGPMFSEKNTDHIQLDSKDIAESWGCGC
B2: Propionyl CoA carboxylase beta chain, mitochondrial (protein, UniProt Q99MN9 29-541)
chain: GLCSQPVSVKERIDNKRHAALLGGGQRRIDAQHKRGKLTARERISLLLDPGSFMESDMFVEHRCADFGMAADKNKFPGDSVVTGRGRINGRLVYVFSQDFTVFGGSLSGAHAQKICKIMDQAITVGAPVIGLNDSGGARIQEGVESLAGYADIFLRNVTASGVIPQISLIMGPCAGGAVYSPALTDFTFMVKDTSYLFITGPEVVKSVTNEDVTQEQLGGAKTHTTVSGVAHRAFDNDVDALCNLREFFNFLPLSSQDPAPIRECHDPSDRLVPELDTVVPLESSKAYNMLDIIHAVIDEREFFEIMPSYAKNIVVGFARMNGRTVGIVGNQPNVASGCLDINSSVKGARFVRFCDAFNIPLITFVDVPGFLPGTAQEYGGIIRHGAKLLYAFAEATVPKITVITRKAYGGAYDVMSSKHLLGDTNYAWPTAEIAVMGAKGAVEIIFKGHQDVEAAQAEYVEKFANPFPAAVRGFVDDIIQPSSTRARICCDLEVLASKKVHRPWRKHANIPL
B3: Non-lysosomal glucosylceramidase (protein, UniProt Q69ZF3 1-918)
chain: MVTCVPASEQVGCAERDSQVYCEDTGGTEAVRVTDCGSPEDSGPQDEPSYCNSEDSGQLMASYEGKARGYQVPPFGWRICLAHEFAEKRRPFQANNISLSNLVKHLGMGLRYLKWWYRKTHVEKKTPFIDMLNSLPLRQIYGCPLGGIGGGTITRGWRGQFCRWQLNPGMYQHQTVIADQFIVCLRRDGRTVYQQVLSLELPNVLRSWNWGLCGYFAFYHALYPRAWTVYQLPGQNVTLTCRQVTPILPHDYQDSSLPVGVFVWDVENEGDETLDVSITFSMRNGLGGEDDAAGSLWNEPFRLEQGGTTVQGLLLHHPTPPNPYTMAVAARCTADTTVTHTTAFDPNGTGQQVWQDLLQDGQLDSPAGQSTPTQKGEGIAGAVCVSSKLLPRSRCCLEFSLAWDMPKIMFGAKSQVHYRRYTRFFGSDGDVAPALSHYALCHYADWEDRISAWQNPVLDDRTLPAWYKSALFNELYFLADGGTVWLEVPADSLPEGLGGSMRQLRSTLQDYGRFGYLEGQEYRMYNTYDVHFYASFALVMLWPKLELSLQYDMALATLKEDLTRRRYLMSGVVAPVKRRNVIPHDIGDPDDEPWLRVNAYLIHDTADWKDLNLKFVLQIYRDYYLTGDQGFLEDMWPVCLAVMESEMKFDKDQDGLIENGGYADQTYDAWVTTGPSAYCGGLWLAAVAVMVQMAVLCGAQDVQERFASILCRGREAYERLLWNGRYYNYDSSSHPQSRSIMSDQCAGQWFLRACGLGEGDTEVFPTLHVVRALQTIFELNVQAFAGGAMGAVNGMHPHGVPDRSSVQSDEVWVGVVYGLAATMIQEGLTWEGFRTAEGCYRTVWERLGLAFQTPEAYCQQQVFRSLAYMRPLSIWAMQLALQQQQHKKSRRPSVTQGTGLSTQPECGPKRSLANLNSE
B4: Thioredoxin (protein, UniProt P10639 1-105)
chain: MVKLIESKEAFQEALAAAGDKLVVVDFSATWCGPCKMIKPFFHSLCDKYSNVVFLEVDVDDCQDVAADCEVKCMPTFQFYKKGQKVGEFSGANKEKLEASITEYA
B5: Keratin type I cuticular Ha2 (protein, UniProt Q62168 1-407)
chain: MPSVCMPTTYRPASCLSKTYLSSSCQPSNRRPTGCISSSMGTYGLFCEGAFNGNEKETMQVLNDRLANYLEKVRQLEKENAELEGKIQDVYQGQVLTMCPDYQSYFQTIEELQQKVLCTKAENARMIVHIDNAKLAADDFRTKYETELALRQLVEADTNGLRRILDELTLNKADLEAQVESLKEELLCLKRNHEEEVGVLRQQLGDRLNIEVDAAPPVDLTRMLEEMRCQYETMVETNHRDVEEWFNMQMEELNKQVATSSEQLQSYQSDIIDLRRTVNTLEIELQAQHSLRDSLENTLGETEGRFTSQLSQMQCMITNVESQLSDIRCDLERQNQEYKVLLDVKARLECEIDTYRGLLESEDSKLPCNPCSTPSCQPCAPSPGVSRTVCVPHTVCVPCSPCLQTRY
B6: Propionyl CoA carboxylase alpha chain, mitochondrial (protein, UniProt Q91ZA3 49-724)
chain: SVEYEPKEKTFDKILIANRGEIACRVIKTCKKMGIKTVAIHSDVDASSVHVKMADEAVCVGPAPTSKSYLNMDAIMEAIKKTRAQAVHPGYGFLSENKEFAKRLAAEDVTFIGPDTHAIQAMGDKIESKLLAKRAKVNTIPGFDGVVKDADEAVRIAREIGYPVMIKASAGGGGKGMRIAWDDEETRDGFRFSSQEAASSFGDDRLLIEKFIDNPRHIEIQVLGDKHGNALWLNERECSIQRRNQKVVEEAPSIFLDPETRQAMGEQAVALAKAVKYSSAGTVEFLVDSQKNFYFLEMNTRLQVEHPVTECITGLDLVQEMILVAKGYPLRHKQEDIPISGWAVECRVYAEDPYKSFGLPSIGRLSQYQEPIHLPGVRVDSGIQPGSDISIYYDPMISKLVTYGSDRAEALKRMEDALDNYVIRGVTHNIPLLREVIINTRFVKGDISTKFLSDVYPDGFKGHTLTLSERNQLLAIASSVFVASQLRAQRFQEHSRVPVIRPDVAKWELSVKLHDEDHTVVASNNGPAFTVEVDGSKLNVTSTWNLASPLLSVNVDGTQRTVQCLSREAGGNMSIQFLGTVYKVHILTKLAAELNKFMLEKVPKDTSSTLCSPMPGVVVAVSVKPGDMVAEGQEICVIEAMKMQNSMTAGKMGKVKLVHCKAGDTVGEGDLLVELE

Each binder was assayed against T1, Peroxiredoxin V (mouse (endogenous in kidney)) (assay: affinity purification with mass spectrometry; 500 μg total protein of normoxic or hypoxic (8% O2, 4 h) mouse kidney, anti-Prdx V antibody at 4°C overnight, protein G agarose; gel-assisted digestion, nano-UPLC-MS^E; three independent experiments).

**Q.** How did the binding turn out when B1 was run?
**A.** binds

**Q.** For B2, which binding is on record?
**A.** binds

**Q.** With B3 as the binder, how does the binding read?
**A.** binds

**Q.** With B4 as the binder, how does the binding read?
**A.** binds

**Q.** For B5, which binding is on record?
**A.** binds

**Q.** Which binding does the source give for B6 here?
**A.** binds
